1 compound from patent publication US20020127605A1 (priority 2000, published 2002) can be followed below.

The chains behind the UniProt entries cited, without tags or fusion partners.
UniProt P62937, whole entry: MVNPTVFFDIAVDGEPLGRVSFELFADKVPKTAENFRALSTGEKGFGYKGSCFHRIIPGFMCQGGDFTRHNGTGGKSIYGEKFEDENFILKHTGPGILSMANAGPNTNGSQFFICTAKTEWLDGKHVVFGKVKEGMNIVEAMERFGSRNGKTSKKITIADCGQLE

The target in this experiment is human recombinant CyPA (Homo sapiens, UniProt P62937). As to the kind of experiment: Semiautomated microtiter plate assay of rotamase activity inhibition. The following applies: read-out: IC50 (rotamase inhibition, modified plate reader assay), 30 minute preincubation at 4° C.

pIC50: −log10 of the molar value. The structures given here were assigned with low confidence; some may be wrong.

As to `O=C(Nc1cccc(N(S(=O)(=O)c2cc(Cl)cc(Cl)c2)S(=O)(=O)c2cc(Cl)cc(Cl)c2)c1)NS(=O)(=O)c1cc(Cl)cc(Cl)c1`, the negative logarithm of the IC50 (pIC50) is 7.10.

What is called pIC50 is the negative decadic logarithm of the IC50, by convention in mol/L.
